System: AhR
Experiment: Sucrose density gradient sedimentation of the AhR in Hepa cytosol
Assay type: biochemical, mouse
Details: for gradient fractions in which the AhR sediments, 9S region: 200 μM EGCG (predominant fractions) or 10 nM TCDD

| Structure (SMILES) | additional gradient fractions in which the AhR was detected (Hepa cytosol, 200 μM EGCG, 2 h) | gradient fractions in which the AhR sediments, 9S region (Hepa cytosol, 2 h) | sedimentation coefficient of the shifted AhR complex (fractions 21-23, crude estimate relative to 14C-BSA (4.4S)) |
| --- | --- | --- | --- |
| O=C(O[C@@H]1Cc2c(O)cc(O)cc2O[C@@H]1c1cc(O)c(O)c(O)c1)c1cc(O)c(O)c(O)c1 [EGCG, epigallocatechin gallate] | 21-23 fractions | 13-15 fractions | 13-14 S |
| Clc1cc2c(cc1Cl)Oc1cc(Cl)c(Cl)cc1O2 [TCDD, 2,3,7,8-tetrachlorodibenzo-p-dioxin, reference compound] |  | 8-16 fractions |  |

Reference: patent publication US20120165403A1, “METHODS OF INHIBITING THE ACTIVITY OF HSP90 AND/OR ARYL HYDROCARBON RECEPTOR” (UNIVERSITY OF ROCHESTER, priority 2004, published 2012)
